The other results are listed elsewhere or left out. Further columns of the screen follow, without active or inactive calls. Most of these compounds were active or inconclusive in the main read-out, so they are no random draw. The note in brackets gives the kind of curve behind each potency; many fits are weak.
Experiment: qHTS Assay to Find Inhibitors of Chronic Active B-Cell Receptor Signaling
Conditions: ABC-DLBCL IkBa-CBG/CBR reporter, luminescence ratio (green luciferase fused to IkBa over red control in TMD8 lymphoma cells), 4 h
Summary of the method: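 TMD8 ABC-DLBCL cells carrying doxycycline-inducible green luciferase fused to IkappaBalpha plus unfused red luciferase were exposed to compounds (up to 46 uM) for 4 hrs at 37C. Activity came from the overlap-corrected green/red luminescence ratio.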

[1] = measured here: CBR red luminescence, cell number
[2] = measured here: IkBa-CBG green luminescence

Row | SMILES | AC50 [1] | AC50 [2]
1 | Cc1cccc(/N=C2/NC(=O)C(Cc3ccccc3)S2)n1 (stereo not drawn) | 0.447 µM [rising, full curve, poor fit] | –
2 | O=C(CN1C(=O)NC(Cc2c[nH]c3ccccc23)C1=O)Nc1cccc(S(=O)(=O)N2CCCCCC2)c1 (stereo not drawn) | 25.9 µM [falling, partial curve, poor fit] | –
3 | CC1CCN(C(=O)COC(=O)[C@H](C)NS(=O)(=O)/C=C/c2ccccc2)CC1 | 29.1 µM [rising, single point] | –
4 | Cc1nc(NC(=O)c2ccccc2)nc2cc3c(cc12)OCO3 | 1.16 µM [falling, full curve] | –
5 | COc1ccc(NC(=O)C2CCN(S(=O)(=O)c3cccc4nonc34)CC2)cc1OC | 20 µM [falling, partial curve, poor fit] | –
6 | COc1ccc(/C=C/C(=O)O)cc1S(=O)(=O)N1CCCCC1 | 35.5 µM [falling, single point] | –
7 | O=C(NNC(=O)c1ccccc1OCc1ccccc1)c1ccccc1O | 11.2 µM [falling, partial curve] | –
8 | C=CCN=C(NC#N)SCC(=O)NCc1ccccc1 | 22.4 µM [rising, single point] | –
9 | CC(=O)Nc1cccc(-c2csc(Nc3cccc(C)n3)n2)c1 | 0.316 µM [falling, full curve, poor fit] | –
10 | C#CCSc1nsc(SCC#C)c1C#N | 5.62 µM [rising, partial curve] | –
11 | COc1ccc(-c2nn(-c3ccccc3)cc2C(=O)NCC(c2cccs2)N2CCOCC2)cc1 (stereo not drawn) | 2.31 µM [rising, full curve, poor fit] | –
12 | O=C(O)c1cccc(-c2ccc(/C=c3/sc4nc5ccccc5n4c3=O)o2)c1 | 7.94 µM [falling, partial curve] | –
13 | C/C(=N\NC(=O)c1ccc(F)cc1)c1ccccn1 | 5.62 µM [rising, single point] | 7.08 µM [falling, partial curve]
14 | COc1cc(NC(=O)CN2CCN(c3ccccc3F)CC2)cc(OC)c1 | 8.2 µM [rising, partial curve] | –
15 | CCC(OC(=O)c1cc2sccc2n1C)C(=O)NCc1ccco1 (stereo not drawn) | 25.1 µM [falling, single point] | –
16 | COc1ccc(-c2oc(=O)c3cc(OC)c(OC)cc3c2/C=C/c2ccc(F)cc2)cc1 | 29.1 µM [rising, single point] | –
17 | CSc1cccc(-n2cc(-c3ccc4c(c3)OCO4)[nH]c2=O)c1 | 20 µM [falling, single point] | –
18 | Cc1ccc(C)c(S(=O)(=O)N2C(=S)NC(=O)C2CC(C)C)c1 (stereo not drawn) | 29.1 µM [rising, single point] | –
19 | Cc1ccc2c(c1)N(CCC(=O)NCc1ccco1)C(=O)CO2 | 15.8 µM [falling, partial curve] | –
20 | COc1ccc(N(CC(=O)N2CCOCC2)S(=O)(=O)c2ccccc2)cc1Cl | 3.55 µM [rising, partial curve, poor fit] | –

Row | SMILES | AC50 [1] | AC50 [2]
21 | CCCc1nnc(NC(=O)c2cccs2)s1 | 11.2 µM [falling, partial curve, poor fit] | –
22 | O=C(NCCc1c[nH]c2ccccc12)N[C@@H](Cc1ccccc1)C(=O)O | 5.01 µM [rising, full curve] | –
23 | O=C(/C=C/c1ccccc1)NC(=S)Nc1ccccc1O | 20 µM [falling, single point] | –
24 | O=C(NCc1ccncc1)C(=O)Nc1nc2ccccc2s1 | 1.12 µM [rising, partial curve, poor fit] | –
25 | CCc1ccc(-c2nc(CN3CCC(C(=O)NCc4ccc(F)cc4)CC3)c(C)o2)cc1 | 31.6 µM [rising, partial curve, poor fit] | –
26 | O=C(OCC(=O)N1CCN(c2ccccc2)CC1)c1ccc(O)cc1O | 0.501 µM [falling, full curve] | –
27 | COc1cc(C2C(C(=O)c3cc4ccccc4o3)=C(O)C(=O)N2CCN2CCOCC2)ccc1OCCC(C)C (stereo not drawn) | 35.5 µM [falling, partial curve, poor fit] | –
28 | Nc1nc(-c2ccccc2)cc(-c2ccccc2O)n1 | 0.112 µM [falling, full curve, poor fit] | 20 µM [rising, single point]
29 | CC1CCN(C(=O)Cn2c(SCC(=O)Nc3nccs3)nc3ccccc32)CC1 | 14.6 µM [rising, partial curve, poor fit] | –
30 | N#Cc1ccc(CN2CCN(C(=O)CCNS(=O)(=O)c3ccc(F)c(F)c3)CC2)cc1 | 29.1 µM [rising, single point] | –
31 | O=C(Oc1cccc2cccnc12)c1cccc(N2C(=O)C3C4CCC(C4)C3C2=O)c1 (stereo not drawn) | 2.31 µM [rising, partial curve, poor fit] | 23.1 µM [falling, single point]
32 | COc1ccc(NCC(=O)Nc2ccc(Br)cc2F)c(OC)c1 | 1.26 µM [falling, partial curve, poor fit] | –
33 | O=C(NC1CCCCC1)C(c1cccnc1)N(C(=O)CCl)c1cccc(Cl)c1 (stereo not drawn) | 11.6 µM [falling, partial curve] | –
34 | COc1ccc(C(=O)C[n+]2ccc3ccccc3c2C)cc1 | 35.5 µM [rising, single point] | –
35 | O=C(c1ccc(F)cc1)N1CCN(c2ccc([N+](=O)[O-])c(N3CCCCC3)c2)CC1 | 35.5 µM [falling, single point] | –
36 | O=C(CCN1C(=O)/C(=C/c2ccccc2Cl)SC1=S)Nc1ccccc1C(=O)O | 35.5 µM [falling, single point] | –
37 | CC(C)Cn1c(-c2ccco2)n[nH]c1=S | 20.6 µM [rising, single point] | –
38 | Cc1cc(NC(=O)c2ccccc2)no1 | 2 µM [falling, full curve] | –
39 | CCCC(=O)NC(c1ccccc1OC)c1ccc2cccnc2c1O (stereo not drawn) | 2.24 µM [falling, full curve, poor fit] | –
40 | C[C@H](CO)N1C[C@H](C)[C@@H](CN(C)C(=O)Nc2ccccc2)Oc2ccc(NC(=O)c3ccncc3)cc2C1=O | 0.164 µM [rising, full curve, poor fit] | –

Look-ups from the results shown.
C#CCSc1nsc(SCC#C)c1C#N – AC50 [1]: 5.62 µM [rising, partial curve]
Cc1nc(NC(=O)c2ccccc2)nc2cc3c(cc12)OCO3 – AC50 [1]: 1.16 µM [falling, full curve]
